Experimental findings from patent publication US20230192765A1 (UNIVERSITÀ DEGLI STUDI DI ROMA "TOR VERGATA", priority 2020, published 2023) are described below.

The data set in a line: general procedure: Fmoc solid-phase peptide synthesis; Rink Amide MBHA resin (0.65 mmol/g, 100-200 mesh); FastMoc methodology. The settings on record: whole synthesis, analytical HPLC-MS (Phenomenex Kinetex XB-C18, Agilent 1260 Infinity II, 6130 quadrupole LC/MS), scale of the general procedure 0.1 mmol.
Regarding CF-GLN- Y-IDLDL, the “final LC-MS purity” value was 99%.

With CF-GLN-pY-IDLDL, the “final LC-MS purity” value was found to be 93%.

On to CF-GLN-pY-IDLDW, for which the “final LC-MS purity” value was determined as 96%.

For CF-GLN-pY-IDLDW-GRKKRRQRRR, the “final LC-MS purity” value was 90%.

CF-GLN-pY-IDLEW: the “final LC-MS purity” value turned out to be 97%.

With GLN- Y-IDLDL, the “final LC-MS purity” value is recorded as 99%.

With GLN-F2Pmp-IDLDW, the “final LC-MS purity” value was 94%.

For GLN-pY-IDLDL, the “final LC-MS purity” value came out at 95%.

As for LN-pY-IDLDF, the “final LC-MS purity” value came to 93%.

With LN-pY-IDLDL, the “final LC-MS purity” value is 92%.

In the case of LN-pY-IDLDW, the “final LC-MS purity” value is reported as 95%.

Turning to LN-pY-IDLDW-GRKKRRQRRR, the “final LC-MS purity” value is listed as 95%.

In the case of LN-pY-IDLEW, the “final LC-MS purity” value amounted to 98%.

For “N-pY-IDLDL (NYIDLDL; phosphotyrosine; MOD_RES (2)..(2) PHOSPHORYLATION)”, the “final LC-MS purity” value was determined as 92%.
